US20130296316A1, “Antiparasitic Agents Based On mTOR Inhibitors” (priority 2010, published 2013)

Key:
Format in all cases: cell-based
[1] = tested on: L. donovani axenic amastigotes; test: Potency assessment against Leishmania donovani axenic amastigotes (growth, cell counting); conditions: read-out: Effective concentration (EC50) L. donovani axenic amastigotes
Method: (§1) Leishmania major strain FV1 (MHOM/IL/80/Friedlin) was grown in M199 media. Leishmania donovani strain LdBob (MHOM/SD/62/1S-CL2D) were grown in modified M199 media as promastigotes (26° C.). Amastigote specific media (37° C.) was used for growth and differentiation of amastigotes. L. donovani axenic amastigotes were passed once following differentiation prior to use. Cells were enumerated using a Coulter Counter (BD Biosciences); as amastigotes tend to grow in clumps, L. donovani axenic amastigotes were passed gently through a blunt 27-gauge needle prior to counting.
(§2) The compounds were first tested against parasites grown in vitro. For T. brucei and Leishmania donovani, it is possible to cultivate free parasites in vitro as the infective stage forms: bloodstream form (BSF) for T. brucei, and axenic amastigotes for L. donovani. compounds were also tested against L. major promastigotes (the stage carried normally by the insect vector). To study infective forms of T. cruzi, compounds were added simultaneously with trypomastigotes to 3T3 fibroblast host cells and incubated for four days. This protocol thus monitors all steps of the T. cruzi infective cycle (entry, differentiation and replication as amastigotes) as well as potential effects mediated through host cell PI3Ks.

[2] = tested on: T. cruzi trypomastigotes; test: T. cruzi intracellular replication in NIH/3T3 host cells (β-galactosidase, CPRG); conditions: Trypanosoma cruzi, NIH3T3, 96 h, read-out: Effective concentration (EC50) T. cruzi
[3] = tested on: T. b. rhodesiense; test: Potency assessment against T. b. rhodesiense EATRO3 bloodstream form (AlamarBlue, 72 h); conditions: Trypanosoma brucei, read-out: Effective concentration (EC50) T. b. rhodesiense
Method: (§3) Assays were performed using the strain of T. brucei brucei Lister 427 adapted to the laboratory, and the human-infective strain T. b. rhodesiense (EATRO3 ETat1.2 TREU164 [37]). Both strains were grown and tested as bloodstream forms. To establish the EC50, cultures of Trypanosoma brucei and T. b. rhodesiense were treated with two-fold increasing concentrations of compounds (with similar DMSO increasing concentration as control). Cell populations were measured at 72 hours with an Infinite F200 microplate reader (Tecan Austria GmbH, Austria); the determination of cell viability was carried out by the established colorimetric technique AlamarBlue® with modifications, a 96-well plate format spectrophotometric assay which measures the ability of living cells to reduce resazurin [38,39]. Data obtained with T. b. brucei Lister 427 were confirmed by manual counting in a Neubauer chamber for a direct microscopic examination to rule out multinucleated phenotypes that could mask the colorimetric assays, as well as the subtraction of solvent background to dismiss a potential solvent-derived fluorescence. Pentamidine was used as drug control for potency comparison, and T. b. brucei Lister 927 strain was included in our experiments to evaluate the adaptation to medium for the different strains as a variable condition.

[4] = tested on: T. brucei brucei Lister 427; test: Potency assessment against T. brucei brucei Lister 427 bloodstream form (AlamarBlue, 72 h); conditions: Trypanosoma brucei, read-out: Effective concentration (EC50) T. b. brucei
Method: as §3

[5] = tested on: L. donovani promastigotes; test: Potency assessment against Leishmania donovani promastigotes (growth, cell counting); conditions: read-out: Effective concentration (EC50) L. donovani promastigotes
Method: as §1

[6] = tested on: L. major promastigotes; test: Potency assessment against Leishmania major promastigotes (growth, cell counting); conditions: read-out: Effective concentration (EC50) L. major
Method: as §1, §2

CC(C)n1nc(-c2cc3cc(O)ccc3[nH]2)c2c(N)ncnc21 [Pp242]
EC50 [1]: 0.5 ± 0.09 µM
EC50 [2]: > 10 µM
EC50 [3]: 0.166 ± 0.015 µM
EC50 [4]: 0.48 ± 0.1 µM
EC50 [5]: 0.42 ± 0.03 µM
EC50 [6]: 2.4 ± 0.8 µM
